Assay results taken from patent US20250154171A1, “RAS INHIBITORS” (Revolution Medicines, Inc., priority 2023, published 2025).
Some of these results come from one statement about several compounds together.

By UniProt entry, the sequences of proteins in these tests, tags left out. Where a name states a change or a piece, a line headed by the entry shows the natural chain unless it says otherwise. Residues count along the entry.
UniProt P01116, 1-188 isoform P01116-2 G12V: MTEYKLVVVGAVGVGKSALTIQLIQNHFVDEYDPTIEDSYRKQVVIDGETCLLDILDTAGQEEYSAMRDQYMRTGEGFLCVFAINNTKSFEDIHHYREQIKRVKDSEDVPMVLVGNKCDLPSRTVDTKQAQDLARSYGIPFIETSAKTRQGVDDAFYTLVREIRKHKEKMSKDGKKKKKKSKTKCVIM
UniProt P62937, whole entry: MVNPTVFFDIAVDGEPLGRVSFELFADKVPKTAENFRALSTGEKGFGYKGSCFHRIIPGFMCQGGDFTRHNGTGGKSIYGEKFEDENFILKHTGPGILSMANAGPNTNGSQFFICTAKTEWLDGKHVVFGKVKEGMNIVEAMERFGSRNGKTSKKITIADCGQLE

Assays:
[1] = target: K-RasG12V (Homo sapiens, UniProt P01116+P62937, G12V); assay: Disruption of BRAF RBD interaction with K-Ras (TR-FRET / MOA assay), K-RasG12V; assay type: biochemical; details: TR-FRET with cyclophilin A and GST-BRAF RBD, read-out: IC50 with respect to K-RasG12V (disruption of BRAF RBD interaction)
[2] = tested on: Capan-1 (K-Ras G12V); assay: CellTiter-Glo cell viability assay, Capan-1; assay type: cell-based, human; details: 5-day treatment, Capan-1 versus A375

Q: How did the IC50 [1] turn out when `CO[C@@H](C)c1ncc([C@@H]2CCCN(C)CC2)cc1-c1c2c3cc(ccc3n1CCOC1CCOCC1)-c1csc(n1)[C@@H](OCC(F)F)[C@H](NC(=O)[C@H]1[C@H](C)[C@@H]1C)C(=O)N1CCC[C@H](N1)C(=O)OCC(C)(C)C2` (racemic) [Example A841] was run?
A: < 1000 nM

Q: And the “decrease in cell viability with respect to KRAS G12V (Capan-1) versus wild-type KRAS (A375)” value (“decrease in cell viability” for short) [2]?
A: greater decrease in cell viability

Q: With `CO[C@@H](C)c1ncc([C@@H]2CCN3CCOC[C@H]3C2)cc1-c1c2c3cc(ccc3n1CCOC(C)C)-c1csc(n1)[C@@H](OCC(F)F)[C@H](NC(=O)N1C[C@@H]3COCC[C@@H]31)C(=O)N1CCC[C@H](N1)C(=O)OCC(C)(C)C2` (racemic) [Example A843] as the molecule, how does the IC50 [1] read?
A: < 1000 nM

Q: And the “decrease in cell viability” value [2]?
A: greater decrease in cell viability

Q: Which results are given for `CO[C@@H](C)c1ncc([C@@H]2CCN3CCOC[C@@H]3C2)cc1-c1c2c3cc(ccc3n1CCOC(C)C)-c1csc(n1)[C@@H](OCC(F)F)[C@H](NC(=O)N1C[C@@H]3COCC[C@@H]31)C(=O)N1CCC[C@H](N1)C(=O)OCC(C)(C)C2` (racemic) [Example A844]?
A: IC50 [1]: < 1000 nM; decrease in cell viability with respect to KRAS G12V (Capan-1) versus wild-type KRAS (A375) [2]: greater decrease in cell viability

Q: Which IC50 [1] does the source give for `CCO[C@@H]1c2nc(cs2)-c2ccc3c(c2)c(c(-c2cc(N4CCN(C)CC4)cnc2[C@H](C)OC)n3CCOC(C)C)CC(C)(C)COC(=O)[C@@H]2CCCN(N2)C(=O)[C@H]1NC(=O)[C@@H]1[C@@H](C)[C@H]1c1cocn1` (racemic) [Example A846] here?
A: < 1000 nM

Q: What about the “decrease in cell viability” value [2] of the same molecule?
A: greater decrease in cell viability

Q: With `CO[C@@H](C)c1ncc(N2CCN(C)CC2)cc1-c1c2c3cc(ccc3n1CCOC(C)C)-c1csc(n1)[C@@H](OCC(F)F)[C@H](NC(=O)N1CC[C@H]1[C@@H](C)O)C(=O)N1CCC[C@H](N1)C(=O)OCC(C)(C)C2` (racemic) [Example A847] as the molecule, how does the IC50 [1] read?
A: < 1000 nM

Q: And the “decrease in cell viability” value [2]?
A: greater decrease in cell viability

Q: What does the source list for `CCO[C@@H]1c2nc(cs2)-c2ccc3c(c2)c(c(-c2cc(N4CCN(C)CC4)cnc2[C@H](C)OC)n3CCOC(C)C)CC(C)(C)COC(=O)[C@@H]2CCCN(N2)C(=O)[C@H]1NC(=O)[C@@H]1[C@@H](C)[C@H]1C(=O)N1CCN(C)CC1` (racemic) [Example A848]?
A: IC50 [1]: < 1000 nM; decrease in cell viability with respect to KRAS G12V (Capan-1) versus wild-type KRAS (A375) [2]: greater decrease in cell viability

Q: `CCO[C@@H]1c2nc(cs2)-c2ccc3c(c2)c(c(-c2cc(N4CCN(C)CC4)cnc2[C@H](C)OC)n3CCOC(C)C)CC(C)(C)COC(=O)[C@@H]2CCCN(N2)C(=O)[C@H]1NC(=O)[C@@H]1[C@@H](C)[C@H]1c1cn(C)cn1` (racemic) [Example A849] was tested. Which IC50 [1] did it give?
A: < 1000 nM

Q: What about the “decrease in cell viability” value [2] of the same molecule?
A: greater decrease in cell viability

Q: For `CCO[C@@H]1c2nc(cs2)-c2ccc3c(c2)c(c(-c2cc([C@@H]4CCN5CCOC[C@H]5C4)cnc2[C@H](C)OC)n3CCOC2CCOCC2)CC(C)(C)COC(=O)[C@@H]2CCCN(N2)C(=O)[C@H]1NC(=O)[C@H]1[C@H](C)[C@@H]1c1ccccn1` (racemic) [Example A850], which IC50 [1] is on record?
A: < 1000 nM

Q: What about the “decrease in cell viability” value [2] of the same molecule?
A: greater decrease in cell viability

Q: What does the source list for `CCO[C@@H]1c2nc(cs2)-c2ccc3c(c2)c(c(-c2cc([C@@H]4CCN5CCOC[C@@H]5C4)cnc2[C@H](C)OC)n3CCOC2CCOCC2)CC(C)(C)COC(=O)[C@@H]2CCCN(N2)C(=O)[C@H]1NC(=O)[C@H]1[C@H](C)[C@@H]1c1ccccn1` (racemic) [Example A851]?
A: IC50 [1]: < 1000 nM; decrease in cell viability with respect to KRAS G12V (Capan-1) versus wild-type KRAS (A375) [2]: greater decrease in cell viability

Q: How did the IC50 [1] turn out when `CCO[C@@H]1c2nc(cs2)-c2ccc3c(c2)c(c(-c2cc(N4CCN(C)CC4)cnc2[C@H](C)OC)n3CCOC(C)C)CC(C)(C)COC(=O)[C@@H]2CCCN(N2)C(=O)[C@H]1NC(=O)N1C[C@@H]2COCC[C@@H]21` (racemic) [Example A852] was run?
A: < 1000 nM

Q: And the “decrease in cell viability” value [2]?
A: greater decrease in cell viability
